Results deposited as PubChem BioAssay AID1259254 (NCATS, 2017).
Test: 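Genome-wide screen for genes that prevent DNA re-replication in cancer cells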 (primary screen). Cells: human HCT116 colorectal cancer cells. Reagent: single siRNA against human genes. Time to read-out: 3 days. Measurement: 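Imaged Hoechst DNA stain sorts each cell into a cycle phase by DNA amount; per plate, G2 fraction set to 0% for non-targeting and 100% for GMNN siRNA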. Direction: G2 robust z-score and G2 cells, % of GMNN control: higher = more G2 cells, more excess DNA replication. Active means: 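Active siRNAs have a G2 robust z of 5 or more median absolute deviations over the median, which in these data means about 38% or higher of GMNN control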.
The whole screen tested about 59,000 reagents; this is a part drawn at random. Of all reagents, about 1,550 (2.6%) were called active. 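G2 share is only a proxy for re-replication; each gene was hit by three separate siRNAs, and active genes were retested.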 Entries without a mark were called inactive. Further read-outs or replicates are left out here. Reagent sequences are not shown. Not stated in the record: the amount of reagent.

GSTA3 [SID160774647] gave G2 robust z-score -0.0925; G2 cells, % of GMNN control 2.32. After knock-down of GSTA3 [SID160774648] the results were G2 robust z-score 0.296; G2 cells, % of GMNN control 5.05. GSTA3 [SID160774649] scored G2 robust z-score 0.148; G2 cells, % of GMNN control 4.01. Knock-down of WASHC5 [SID160723372] came out at: G2 robust z-score 1.47; G2 cells, % of GMNN control 13.3. With knock-down of WASHC5 [SID160723373], the record shows G2 robust z-score -0.196; G2 cells, % of GMNN control 1.59. With knock-down of WASHC5 [SID160723374], the screen gave G2 robust z-score 4.36; G2 cells, % of GMNN control 33.7.

With knock-down of TRPV4 [SID160747000] the results were G2 robust z-score 1.71; G2 cells, % of GMNN control 15. Against TRPV4 [SID160747001] the deposit lists G2 robust z-score 4.6; G2 cells, % of GMNN control 35.3. Knock-down of TRPV4 [SID160747002] gave: G2 robust z-score 7.58 (active); G2 cells, % of GMNN control 56.3. ZP3 [SID160719341] gave G2 robust z-score 3.99; G2 cells, % of GMNN control 31.1. After knock-down of ZP3 [SID160719342], the record shows G2 robust z-score 1.86; G2 cells, % of GMNN control 16. Depletion of ZP3 [SID160731900] gave: G2 robust z-score 2.37; G2 cells, % of GMNN control 19.7.

With knock-down of SUDS3 [SID160747776], the screen gave G2 robust z-score 2.5; G2 cells, % of GMNN control 20.5. With knock-down of SUDS3 [SID160747777], the record shows G2 robust z-score 0.416; G2 cells, % of GMNN control 5.9. SUDS3 [SID160747778] showed G2 robust z-score 0.929; G2 cells, % of GMNN control 9.5.

3 neighbouring reagents already listed, for reference:
WASHC5 [SID160723373] — G2 robust z-score = -0.196; G2 cells, % of GMNN control = 1.59
WASHC5 [SID160723374] — G2 robust z-score = 4.36; G2 cells, % of GMNN control = 33.7
TRPV4 [SID160747000] — G2 robust z-score = 1.71; G2 cells, % of GMNN control = 15

Next records:
With knock-down of LOC644852 (retired record) [SID160733897], the screen gave G2 robust z-score 1.04; G2 cells, % of GMNN control 10.3. Silencing of LOC644852 (retired record) [SID160769352] gave: G2 robust z-score 0.0948; G2 cells, % of GMNN control 3.63. Silencing of LOC644852 (retired record) [SID160769353] resulted in: G2 robust z-score -0.107; G2 cells, % of GMNN control 2.22. For ZC3H12D [SID160725093], the values are G2 robust z-score -0.778; G2 cells, % of GMNN control -2.51. With knock-down of ZC3H12D [SID160764373], the record shows G2 robust z-score 1.11; G2 cells, % of GMNN control 10.8. Knock-down of ZC3H12D [SID160764374] came out at: G2 robust z-score -0.507; G2 cells, % of GMNN control -0.599.

After knock-down of DEPDC1B [SID160744365], the screen gave G2 robust z-score -0.106; G2 cells, % of GMNN control 2.22. Silencing of DEPDC1B [SID160744366] gave: G2 robust z-score -0.7; G2 cells, % of GMNN control -1.96. After knock-down of DEPDC1B [SID160744367], the screen gave G2 robust z-score 0.265; G2 cells, % of GMNN control 4.83.
